Results taken from patent US11524950B2, “Treatment of immune-related and inflammatory diseases” (Celgene Corporation, priority 2012, dated 2022).
Some entries share one result that the patent states for a list of compounds.

Tested on: Human umbilical vascular endothelial cells
Test: Human umbilical vascular endothelial cells proliferation assay
Assay type: cell-based
Protocol: Human Umbilical Vascular Endothelial Cells Proliferation Assay: Human umbilical vascular endothelial cells were thawed and grown in EGM2 medium until passage 3 to 6 for all proliferation assays. Human umbilical vascular endothelial cells were trypsinized, washed with 20% FBS/M199 medium and plated with the same medium at 10^4 cells/100 μL per well to 96-well cell culture plates. The plates were incubated overnight at 37° C. to allow cells to adhere. The cells were then starved in 1% FBS/M199 medium for 18 hours after washing with the same medium 3 times. […] Thymidine incorporation was measured by adding one microcurie of 3H-thymidine (Amersham) in 20 μL medium to each well and incubated at 37° C. in a humidified cell culture incubator with 5% CO2 for 5 to 6 hours. […] After the plates were air dried, 20 µL/well of Microscint 20 (Packard) was added then the plates were analyzed in TopCount NXT (Packard). Each well was counted for one minute. […]
The percentage inhibition of cell proliferation, tube formation, migration, and invasion was calculated by subtracting the result for unstimulated DMSO control from test sample results, averaging all replicates, and normalizing to the growth factor-stimulated DMSO control (0% inhibition). The IC50 values were calculated by using GraphPad Prism 5.0.

O=C1CC[C@@H](N2Cc3c(OCc4ccc(CN5CCOCC5)cc4)cccc3C2=O)C(=O)N1 [R-enantiomer, (R)-3-[4-(4-morphlin-4-ylmethylbenzyloxy)-1-oxo-1,3-dihydro-isoindo-2-yl]piperidine-2,6-dione]
concentrations with significant enhancement of proliferation (bFGF-treated HUVECs): 0.1 to 1 µM

O=C1CC[C@H](N2Cc3c(OCc4ccc(CN5CCOCC5)cc4)cccc3C2=O)C(=O)N1 [Test compound, (S)-3-[4-(4-morphlin-4-ylmethylbenzyloxy)-1-oxo-1,3-dihydro-isoindo-2-yl]piperidine-2,6-dione]
concentrations with significant enhancement of proliferation (HGF-treated HUVECs): 0.1 to 1 µM
